These are yes or no findings as the source states them, for the method shown. Some binding calls cover weakened binding; strength is not graded here. Sequences can lack the tags named with a protein.
Key:
[1] = target: Aβ (amyloid β) in human postmortem AD hippocampus (human) (UniProt P05067); experiment: FRET analysis, immunofluorescence on AD hippocampal sections
[2] = target: PHF-tau (paired helical filament tau) in human postmortem AD hippocampus (human) (UniProt P10636); experiment: as above
[3] = target: Aβ (amyloid β) in human postmortem AD hippocampus (human) (UniProt P05067); experiment: nonreducing SDS-PAGE of postmortem human soluble hippocampal extracts
[4] = target: PHF-tau (paired helical filament tau) in human postmortem AD hippocampus (human) (UniProt P10636); experiment: antibody FRET microscopy on hippocampal sections of postmortem AD patients

Chains of the proteins cited; added tags and fusions are not shown. Lines headed by an entry give the natural chain unless they say otherwise; changes in a name come on top. A line that says so, or that is headed by a name, gives the form on record, which may keep a tag or linker. Residues count along the entry.
UniProt P05067, residues 672-713: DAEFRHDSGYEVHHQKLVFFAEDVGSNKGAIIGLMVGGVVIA
PHF-tau (paired helical filament tau) in human postmortem AD hippocampus (P10636, form named): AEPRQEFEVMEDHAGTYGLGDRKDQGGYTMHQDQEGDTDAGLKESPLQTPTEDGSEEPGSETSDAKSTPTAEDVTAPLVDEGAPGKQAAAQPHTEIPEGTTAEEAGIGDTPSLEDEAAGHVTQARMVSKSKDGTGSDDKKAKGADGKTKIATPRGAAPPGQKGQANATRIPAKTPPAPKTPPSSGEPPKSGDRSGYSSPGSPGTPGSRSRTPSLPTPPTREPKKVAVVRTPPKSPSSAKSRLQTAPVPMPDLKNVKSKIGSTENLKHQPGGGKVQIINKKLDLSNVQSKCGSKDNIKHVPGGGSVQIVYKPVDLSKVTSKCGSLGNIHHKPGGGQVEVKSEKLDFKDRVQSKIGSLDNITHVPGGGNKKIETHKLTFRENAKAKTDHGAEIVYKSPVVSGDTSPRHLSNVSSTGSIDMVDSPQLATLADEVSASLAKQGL

Measured: binding

B1: Zfra1-31 (full-length zinc finger-like protein that regulates apoptosis, synthetic peptide) (peptide)
peptide: MSSRRSSSCKYCEQDFRAHTQKNAATPFLAN
notes: also called Zfra peptide; full-length Zfra
binds: all assays above

From patent US20190161525A1 (NATIONAL CHENG KUNG UNIVERSITY, published 2019)
